Measured values reported in the M2OR odorant receptor database.
Only a part is listed here, and it is no random draw. Calls are pooled over several reports, among them a noisy single-well screen. This is one part of the list.

Tests used:
Details in all cases: stereoisomer not certain
OR1G1 (Homo sapiens) = molecular target: T1, OR1G1 (Homo sapiens) (UniProt P47890)
T1 sequence (whole entry): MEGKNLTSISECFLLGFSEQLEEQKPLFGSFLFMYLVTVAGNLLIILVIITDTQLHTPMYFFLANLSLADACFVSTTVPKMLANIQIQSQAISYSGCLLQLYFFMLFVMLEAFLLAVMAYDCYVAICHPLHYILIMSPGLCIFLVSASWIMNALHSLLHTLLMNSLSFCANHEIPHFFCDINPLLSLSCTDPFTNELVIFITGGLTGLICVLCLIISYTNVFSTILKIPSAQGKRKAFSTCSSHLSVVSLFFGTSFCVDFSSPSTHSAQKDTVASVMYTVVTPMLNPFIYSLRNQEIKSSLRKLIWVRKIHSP
How it was run: (§1)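 Values were gathered from published papers (main text and supplementary material), with extra details requested from the original authors when needed, and checked for typos and inconsistencies. Each receptor–molecule pair is called responsive (active) if the original authors judged the measured signal statistically different from baseline, and non-responsive (inactive) otherwise. Assay methods varied by source, often transient mammalian cell-line luciferase assays. Recorded details include cell line, G-protein, co-transfected protein and tags.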

OR1I1 = tested on: T2, OR1I1
T2 sequence (whole entry): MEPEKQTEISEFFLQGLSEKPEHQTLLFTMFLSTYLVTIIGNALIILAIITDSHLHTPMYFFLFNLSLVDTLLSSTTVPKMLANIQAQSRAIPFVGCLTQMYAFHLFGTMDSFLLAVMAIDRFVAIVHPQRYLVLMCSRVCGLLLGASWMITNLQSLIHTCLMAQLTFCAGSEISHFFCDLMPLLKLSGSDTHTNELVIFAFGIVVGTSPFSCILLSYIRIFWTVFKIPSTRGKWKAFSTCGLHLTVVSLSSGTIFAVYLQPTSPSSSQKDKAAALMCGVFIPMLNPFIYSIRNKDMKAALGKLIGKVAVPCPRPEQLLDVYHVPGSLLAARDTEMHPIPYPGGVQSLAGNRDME
How it was run: as §1

OR1J1 (Homo sapiens) = molecular target: T3, OR1J1 (Homo sapiens) (UniProt Q8NGS3)
T3 sequence (whole entry): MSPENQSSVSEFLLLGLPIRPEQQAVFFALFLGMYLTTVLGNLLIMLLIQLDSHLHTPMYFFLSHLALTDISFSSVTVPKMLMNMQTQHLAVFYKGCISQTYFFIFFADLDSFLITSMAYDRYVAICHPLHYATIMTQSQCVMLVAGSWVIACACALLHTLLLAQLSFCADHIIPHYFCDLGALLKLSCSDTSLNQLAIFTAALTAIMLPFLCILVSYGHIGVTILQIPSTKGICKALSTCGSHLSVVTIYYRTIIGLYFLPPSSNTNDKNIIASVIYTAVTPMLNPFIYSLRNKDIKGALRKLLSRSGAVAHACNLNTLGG
How it was run: as §1

OR1J2 (Homo sapiens) = molecular target: T4, OR1J2 (Homo sapiens) (UniProt Q8NGS2)
T4 sequence (whole entry): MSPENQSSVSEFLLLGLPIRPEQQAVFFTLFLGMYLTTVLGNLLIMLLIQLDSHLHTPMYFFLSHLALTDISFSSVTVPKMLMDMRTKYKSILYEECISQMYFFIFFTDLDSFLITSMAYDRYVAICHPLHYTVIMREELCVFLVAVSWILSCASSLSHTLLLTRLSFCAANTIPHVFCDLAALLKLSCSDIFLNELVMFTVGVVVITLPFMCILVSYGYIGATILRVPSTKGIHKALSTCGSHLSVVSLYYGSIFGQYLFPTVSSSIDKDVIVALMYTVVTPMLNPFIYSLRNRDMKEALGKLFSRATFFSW
How it was run: as §1

OR1J4 (Homo sapiens) = molecular target: T5, OR1J4 (Homo sapiens) (UniProt Q8NGS1)
T5 sequence (whole entry): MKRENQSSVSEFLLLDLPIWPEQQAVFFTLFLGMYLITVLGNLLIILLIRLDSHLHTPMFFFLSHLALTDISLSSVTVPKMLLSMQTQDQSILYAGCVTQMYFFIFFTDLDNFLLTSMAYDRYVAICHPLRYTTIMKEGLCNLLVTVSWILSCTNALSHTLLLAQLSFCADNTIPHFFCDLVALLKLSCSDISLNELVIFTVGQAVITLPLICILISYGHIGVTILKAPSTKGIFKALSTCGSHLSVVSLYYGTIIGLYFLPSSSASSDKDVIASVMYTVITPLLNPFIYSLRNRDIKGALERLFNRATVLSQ
How it was run: as §1

OR1K1 (Homo sapiens) = molecular target: T6, OR1K1 (Homo sapiens) (UniProt Q8NGR3)
T6 sequence (whole entry): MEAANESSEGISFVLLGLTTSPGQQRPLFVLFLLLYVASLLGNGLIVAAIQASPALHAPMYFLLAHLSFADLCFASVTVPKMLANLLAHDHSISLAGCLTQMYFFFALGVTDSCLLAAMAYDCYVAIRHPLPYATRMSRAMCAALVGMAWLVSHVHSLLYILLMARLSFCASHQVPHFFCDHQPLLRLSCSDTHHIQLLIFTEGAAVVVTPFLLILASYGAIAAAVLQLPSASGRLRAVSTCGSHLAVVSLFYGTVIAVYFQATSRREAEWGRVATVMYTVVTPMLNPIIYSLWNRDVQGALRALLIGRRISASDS
How it was run: as §1

OR1L1 = tested on: T7, OR1L1
T7 sequence (whole entry): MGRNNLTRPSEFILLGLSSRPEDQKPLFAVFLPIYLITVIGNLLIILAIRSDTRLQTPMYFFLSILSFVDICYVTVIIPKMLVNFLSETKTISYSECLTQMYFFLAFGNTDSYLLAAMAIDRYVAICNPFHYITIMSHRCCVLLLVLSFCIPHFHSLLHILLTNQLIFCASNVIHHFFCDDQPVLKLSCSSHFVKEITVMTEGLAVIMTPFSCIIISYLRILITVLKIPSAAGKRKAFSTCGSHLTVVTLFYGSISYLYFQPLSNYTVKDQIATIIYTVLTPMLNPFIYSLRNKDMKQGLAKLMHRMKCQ
How it was run: as §1

OR1L3 (Homo sapiens) = molecular target: T8, OR1L3 (Homo sapiens) (UniProt Q8NH93)
T8 sequence (whole entry): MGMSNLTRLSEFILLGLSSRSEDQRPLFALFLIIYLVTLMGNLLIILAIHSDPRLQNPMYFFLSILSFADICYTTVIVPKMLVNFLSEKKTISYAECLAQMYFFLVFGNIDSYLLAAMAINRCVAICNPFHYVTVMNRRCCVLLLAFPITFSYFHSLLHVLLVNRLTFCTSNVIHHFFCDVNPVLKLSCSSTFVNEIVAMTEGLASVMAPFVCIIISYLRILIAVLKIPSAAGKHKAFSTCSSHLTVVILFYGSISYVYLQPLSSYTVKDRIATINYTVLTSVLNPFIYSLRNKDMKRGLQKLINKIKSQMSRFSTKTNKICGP
How it was run: as §1

OR1L4 = tested on: T9, OR1L4
T9 sequence (whole entry): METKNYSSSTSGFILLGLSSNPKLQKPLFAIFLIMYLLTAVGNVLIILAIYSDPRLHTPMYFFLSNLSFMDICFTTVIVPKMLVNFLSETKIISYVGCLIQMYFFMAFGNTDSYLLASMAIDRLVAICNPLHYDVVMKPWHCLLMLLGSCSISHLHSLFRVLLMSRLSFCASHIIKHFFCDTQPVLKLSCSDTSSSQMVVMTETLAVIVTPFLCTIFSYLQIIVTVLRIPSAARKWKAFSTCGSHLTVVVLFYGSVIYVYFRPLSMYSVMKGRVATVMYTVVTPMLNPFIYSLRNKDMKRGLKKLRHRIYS
How it was run: as §1

OR1L6 = tested on: T10, OR1L6
T10 sequence (whole entry): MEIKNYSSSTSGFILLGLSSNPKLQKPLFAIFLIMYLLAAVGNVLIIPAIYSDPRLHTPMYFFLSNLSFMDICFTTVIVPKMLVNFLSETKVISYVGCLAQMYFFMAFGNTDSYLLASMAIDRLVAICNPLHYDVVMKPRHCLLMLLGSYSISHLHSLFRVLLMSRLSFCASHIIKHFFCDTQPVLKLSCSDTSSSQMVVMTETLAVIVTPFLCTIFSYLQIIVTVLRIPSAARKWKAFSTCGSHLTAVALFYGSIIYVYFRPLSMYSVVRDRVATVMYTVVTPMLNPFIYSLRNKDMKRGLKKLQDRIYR
How it was run: as §1

Measured: odorant receptor agonist call

CCCCOC(C)=O
inactive: all assays above

CS
inactive: all assays above

CCC(C)=O
inactive: all assays above

CCOc1cc(C=O)ccc1O
inactive: OR1G1 (Homo sapiens)
